This is one part of the list. Single values are uncertain here, since repeats match poorly.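 Researchers measured free-swimming zebrafish larvae's O-bend response probability to dark flashes (naive: first five; training: remaining flashes of four 60-flash blocks; test: later 60-flash block) and OMR turning toward alternating leftward/rightward LED motion. Six treated larvae were compared to sixty 0.1% DMSO controls, with |SSMD|≥2 marking a hit.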

Here are results for 40 molecules from the supplement of paper PMC10727501.

The experiment relates to Danio rerio larvae (5 dpf, TLF). Briefly: OMR-Perf (SSMD vs DMSO vehicle); higher = higher than vehicle (e.g. higher dark-flash O-bend response probability, or better optomotor performance). To be noted: 10 µM; pre-incubation: 30-90 min.
`CC[C@@H](C)[C@@H]1NC(=O)[C@@H](CCCN)NC(=O)[C@@H](NC(=O)[C@@H](NC(=O)[C@@H](CCC(=O)[O-])NC(=O)[C@H](CC(C)C)NC(=O)C2CN=C([C@@H](N)[C@@H](C)CC)S2)[C@H](C)CC)CCCCNC(=O)[C@H](CC(N)=O)NC(=O)[C@@H](CC(=O)[O-])NC(=O)[C@H](Cc2c[nH]cn2)NC(=O)[C@H](Cc2ccccc2)NC1=O.[Zn+2]` (stereo not given in full) [Bacitracin zinc]: the OMR-Perf was -0.402.

Take `CCc1cncnc1N1CCN(Cc2nc3cc(C(F)(F)F)ccc3[nH]2)CC1`: the OMR-Perf was -0.45.

In turn, `N[C@H](Cc1ccccc1)C(=O)O` [D-Phenylalanine] displayed an OMR-Perf of 0.0698.

Turning to `C[C@@H]1CC(=O)NN=C1c1ccc(NN=C(C#N)C#N)cc1` [Levosimendan], the OMR-Perf was -0.526.

Regarding `C#CCC(Cc1cnc2nc(N)nc(N)c2n1)c1ccc(C(=O)N[C@@H](CCC(=O)O)C(=O)O)cc1` (stereo not given in full) [Pralatrexate], the OMR-Perf is -0.244.

As to `O=C(O)CCc1nc2ccccc2[nH]1` [Procodazole], the OMR-Perf is 0.141.

As to `C[C@H]1[C@H](O)O[C@H]2O[C@@]3(C)CC[C@H]4[C@@H](C)CC[C@@H]1[C@@]24OO3` [Dihydroartemisinin (DHA)], the OMR-Perf is -0.784.

In turn, `C[N+](C)(C)CCO.[Cl-]` [Choline Chloride] displayed an OMR-Perf of -0.0373.

For the molecule `Cl.NC(CO)C(=O)NNCc1ccc(O)c(O)c1O` (stereo not given) [Benserazide HCl], the OMR-Perf came out at 0.103.

For `CC(C)N(CCCNC(=O)Nc1ccc(C(C)(C)C)cc1)C[C@H]1O[C@@H](n2cc(Br)c3c(N)ncnc32)[C@H](O)[C@@H]1O`, the OMR-Perf turned out to be 0.608.

Molecule `NC(N)=NCCN1CCCCCCC1.NC(N)=NCCN1CCCCCCC1.O=S(=O)(O)O` [Guanethidine Sulfate] yielded an OMR-Perf of -0.274.

Turning to `O=C(COc1ccc(C(=O)c2ccccc2)cc1)NC1CCN(Cc2ccccc2)CC1` [AdipoRon], the OMR-Perf was -0.473.

Consider `COC(=O)Nc1nc2ccc(Sc3ccccc3)cc2[nH]1` [Fenbendazole], for which the OMR-Perf was -0.728.

`O=C(O)[C@H](Cc1c[nH]c2ccccc12)N1C(=O)c2ccccc2C1=O` had an OMR-Perf of 0.125.

The molecule `COc1cc2c(Oc3ccc(NC(=O)C4(C(=O)Nc5ccc(F)cc5)CC4)cc3F)ccnc2cc1OCCCN1CCOCC1` showed an OMR-Perf of -0.416.

With `Cc1ccc([C@@H]2O[C@H](CO)[C@@H](O)[C@H](O)[C@H]2O)cc1Cc1ccc(-c2ccc(F)cc2)s1` [Canagliflozin], the OMR-Perf is 0.41.

Molecule `Cl.Cl.NC1(c2ccc(-c3nc4ccn5c(=O)[nH]nc5c4cc3-c3ccccc3)cc2)CCC1` registered an OMR-Perf of -0.477.

In turn, `CNC(=O)c1cc(COc2nnc(Nc3ccc(Cl)cc3)c3ccoc23)ccn1` [Telatinib] displayed an OMR-Perf of -0.613.

Regarding `CCOC(=O)[C@H](CCc1ccccc1)N[C@@H](C)C(=O)N1[C@@H](C(=O)O)C[C@@H]2CCC[C@@H]21` [Ramipril], the OMR-Perf turned out to be 0.173.

On to `CN(C)CC/C=C1\c2ccccc2COc2ccc(CC(=O)O)cc21.Cl` [Olopatadine HCl], for which the OMR-Perf is -0.0409.

On to `O=C([O-])[C@H](CC(=O)N1C[C@H]2CCCC[C@H]2C1)Cc1ccccc1.O=C([O-])[C@H](CC(=O)N1C[C@H]2CCCC[C@H]2C1)Cc1ccccc1.[Ca+2]` [Mitiglinide calcium], for which the OMR-Perf was -0.0967.

Turning to `Nc1nc(N)c2nc(-c3ccccc3)c(N)nc2n1` [Triamterene], the OMR-Perf came out at 0.241.

For the molecule `CCn1c(-c2nonc2N)nc2c(C#CC(C)(C)O)ncc(OC[C@H]3CCCNC3)c21`, the OMR-Perf stood at 0.319.

Molecule `O=C(O)CCc1nc(-c2ccccc2)c(-c2ccccc2)o1` [Oxaprozin] gave an OMR-Perf of -0.613.

Molecule `Cc1c(OCC(F)(F)F)ccnc1CS(=O)c1nc2ccccc2[nH]1` (stereo not given) [Lansoprazole] came in with an OMR-Perf of -0.503.

Molecule `CCCC(=O)O[C@@]1(C(=O)COC(C)=O)CC[C@H]2[C@@H]3C[C@H](F)C4=CC(=O)C=C[C@]4(C)[C@]3(F)[C@H](O)C[C@@]21C` [Difluprednate] showed an OMR-Perf of 0.497.

Molecule `COc1ccc(C2=NC(c3ccc(Cl)cc3)C(c3ccc(Cl)cc3)N2C(=O)N2CCNC(=O)C2)c(OC(C)C)c1` (stereo not given) [Nutlin-3] displayed an OMR-Perf of -0.0928.

Take `COCC[n+]1c2c(n(Cc3cnccn3)c1C)C(=O)c1ccccc1C2=O` [YM155 (Sepantronium Bromide)]: the OMR-Perf is -0.00507.

As for `CN(C)C(=O)[C@H](O)[C@H](Cc1ccccc1)NC(=O)c1cc2cc(Cl)ccc2[nH]1`, the OMR-Perf was found to be 0.385.

`CS(=O)c1ccc(-c2nc(-c3ccc(F)cc3)c(-c3ccncc3)[nH]2)cc1` (stereo not given): the OMR-Perf stood at 0.446.

`CC[N+](CC)(CC)CCOc1cccc(OCC[N+](CC)(CC)CC)c1OCC[N+](CC)(CC)CC.[I-].[I-].[I-]` [Gallamine Triethiodide] gave an OMR-Perf of -0.582.

`CN1CCc2nc(C(=O)N[C@H]3C[C@H](C(=O)N(C)C)CC[C@@H]3NC(=O)C(=O)Nc3ccc(Cl)cn3)sc2C1` [Edoxaban]: the OMR-Perf was -0.232.

Regarding `Cc1ncc(C[n+]2csc(CCO)c2C)c(N)n1.Cl.[Cl-]` [Thiamine HCl (Vitamin B1)], the OMR-Perf was -0.0685.

As for `NC1(Cc2ccc(Cl)cc2)CCN(c2ncnc3[nH]ccc23)CC1`, the OMR-Perf was -0.932.

On to `Cc1ccc(Nc2nccc(N(C)c3ccc4c(C)n(C)nc4c3)n2)cc1S(N)(=O)=O` [Pazopanib], for which the OMR-Perf was -0.231.

As to `CC(C)OC(=O)OCOP(=O)(CO[C@H](C)Cn1cnc2c(N)ncnc21)OCOC(=O)OC(C)C.O=C(O)/C=C\C(=O)O` [Tenofovir Disoproxil Fumarate], the OMR-Perf is -0.00134.

As for `Cl.O=S(=O)(c1cccc2cnccc12)N1CCCNCC1` [Fasudil (HA-1077) HCl], the OMR-Perf was 0.0104.

Turning to `CC(C)c1c(C(=O)Nc2ccccc2)c(-c2ccccc2)c(-c2ccc(F)cc2)n1CC[C@@H](O)C[C@@H](O)CC(=O)[O-].CC(C)c1c(C(=O)Nc2ccccc2)c(-c2ccccc2)c(-c2ccc(F)cc2)n1CC[C@@H](O)C[C@@H](O)CC(=O)[O-].[Ca+2]` [Atorvastatin Calcium], the OMR-Perf amounted to 0.0766.

Regarding `Cc1cc(=O)oc2cc(O)ccc12` [4-Methylumbelliferone (4-MU)], the OMR-Perf came to 0.167.

`C#CCN[C@H]1CCc2ccccc21.CS(=O)(=O)O` [Rasagiline Mesylate] returned an OMR-Perf of -0.227.
